From patent publication US7820405B2, “Specific bacterial inclusions in bone marrow cells indicate systematic lupus erthematosus, and treatment for lupus” (Sphingomanas Research Partners, L.P., priority 2005, dated 2010)
At least one structure is not confirmed: it was looked up by name or label, or the drawing left a doubt.

How the values were obtained:
[1] = assay type: in vivo, human
[2] = test system: intra-erythrocytic bacterial structures (Mycoplasma haemosapiens); assay type: in vivo, human; conditions: Patient A

C[C@H]1c2cccc(O)c2C(=O)C2=C(O)[C@]3(O)C(=O)C(C(N)=O)=C(O)[C@@H](N(C)C)[C@@H]3[C@@H](O)[C@@H]21 [doxycycline]
clinical course (skin lesions, oral ulcerations) ([1]; Patient A): clinical improvement in skin lesions and oral ulcerations
anti dsDNA levels ([1]; Patient A, after treatment for 6 months): decline
clinical parameters of objective and subjective disease ([1]; lupus patients A and B): improved
elimination of intra-erythrocytic inclusions ([2]; after doxycycline, bright field microscopy of Giemsa-stained blood films): had not completely eliminated the inclusions
course of percentage of parasitized erythrocytes ([2]; doxycycline 100 mg twice daily, decline logarithmic): began a decline over several months
